Measured values from the odorant receptor screen of Mainland et al. (2015).
“And” between values parts separate entries of the source, which are not always exact repeats. Identical values can stand only once. The list shows a part of the results. Single wells; the ratio to wells without odorant was worked out here, and repeats agree poorly.

The molecules below were run on OR1E2 clone 1517 (assay: odorant receptor activation (CRE luciferase / Renilla) (fold of no-odor wells); higher = more activation). Details: 100 µM.

Row | SMILES | odorant receptor activation
1 | CC=Cc1ccc(O)c(OC)c1 [isoeugenol] | 1.34 and 1.79
2 | O=C1CCCCCCCCCCCCCCO1 [pentadecalactone] | 0.696
3 | CC12CCC(CC1)C(C)(C)O2 [cineole] | 1.12
4 | O=C1CCCCC1 [Cyclohexanone] | 1.24 and 0.781
5 | C=CCSCC=C [diallyl sulfide] | 1.52
6 | CC(=O)OC1CC2CCC1(C)C2(C)C (centres undefined) [isobornyl acetate] | 0.941 and 1.1
7 | COC(=O)c1ccccc1O [methyl salicylate] | 1.16
8 | COC(=O)c1ccccc1 [methyl benzoate] | 0.982 and 0.983
9 | C=CC(C)(O)CCC=C(C)C (centres undefined) [linalool] | 1.21
10 | C=CCc1ccc(OC(C)=O)c(OC)c1 [eugenol acetate] | 1.88
11 | CC12C=CCC1C1CCC3CC(=O)CCC3(C)C1CC2 (centres undefined) [androstenone] | 1.22
12 | CC12C=CCC1C1CCC3=CC(=O)CCC3(C)C1CC2 (centres undefined) [androstadienone] | 0.919 and 1.41
13 | CC(C)(C)c1ccc(CCC=O)cc1 [bourgeonal] | 0.99
14 | CCCCCCOC(=O)CCC [hexyl butyrate] | 0.823 and 0.831
15 | CC1COCc2cc3c(cc21)C(C)(C)C(C)C3(C)C (centres undefined) [galaxolide] | 5.58 and 4.18
16 | CC(=O)c1ccccc1 [acetophenone] | 1.01 and 0.775
17 | CC1=NC(C)SC1C (centres undefined) | 0.748 and 1.04
18 | CCCCCOC(C)=O [n-amyl acetate] | 0.909 and 0.793
19 | CC(=O)OC(C)(C)C1CC=C(C)CC1 (centres undefined) [terpinyl acetate] | 1.18
20 | C=C(C)C1CC=CCC1 (centres undefined) [r-limonene] | 0.966 and 1.05 and 0.847
21 | CCCCCCCCCC=O [decyl aldehyde] | 1.58
22 | CC(=O)C(C)=O [diacetyl] | 1.57
23 | CCCCCCCCOC(C)=O [octyl acetate] | 0.873
24 | C=CCc1ccc(O)c(OC)c1 [eugenol] | 1.91 and 1.09 and 1.56
25 | CCCCCCCOC(C)=O [heptyl acetate] | 0.662 and 1.19
26 | CCCCCC(C)=O [2-heptanone] | 0.844 and 0.543

What follows are molecules tested on OR1F1 F75S clone 1281 in the same assay as above. Details: 100 µM.

Row | SMILES | odorant receptor activation
27 | CC=Cc1ccc(O)c(OC)c1 [isoeugenol] | 1 and 1.38
28 | O=C1CCCCCCCCCCCCCCO1 [pentadecalactone] | 0.883
29 | CCCCCCC=O [heptaldehyde] | 0.661 and 1.21 and 0.822
30 | CC12CCC(CC1)C(C)(C)O2 [cineole] | 1.07
31 | O=C1CCCCC1 [Cyclohexanone] | 0.367
32 | C=CCSCC=C [diallyl sulfide] | 1.05
33 | CC(=O)OC1CC2CCC1(C)C2(C)C (centres undefined) [isobornyl acetate] | 1.2 and 1
34 | COC(=O)c1ccccc1O [methyl salicylate] | 0.919
35 | COC(=O)c1ccccc1 [methyl benzoate] | 0.474
36 | C=CC(C)(O)CCC=C(C)C (centres undefined) [linalool] | 0.812
37 | C=CCc1ccc(OC(C)=O)c(OC)c1 [eugenol acetate] | 1.6
38 | CC12C=CCC1C1CCC3CC(=O)CCC3(C)C1CC2 (centres undefined) [androstenone] | 1.24
39 | CC12C=CCC1C1CCC3=CC(=O)CCC3(C)C1CC2 (centres undefined) [androstadienone] | 1.13 and 1.07
40 | CC(C)(C)c1ccc(CCC=O)cc1 [bourgeonal] | 0.933
41 | CCCCCCOC(=O)CCC [hexyl butyrate] | 1.09 and 0.809
42 | CC1COCc2cc3c(cc21)C(C)(C)C(C)C3(C)C (centres undefined) [galaxolide] | 0.988 and 2.92
43 | CC(=O)c1ccccc1 [acetophenone] | 0.857
44 | CC1=NC(C)SC1C (centres undefined) | 0.658
45 | CCCCCOC(C)=O [n-amyl acetate] | 0.408
46 | CC(=O)OC(C)(C)C1CC=C(C)CC1 (centres undefined) [terpinyl acetate] | 0.842
47 | C=C(C)C1CC=CCC1 (centres undefined) [r-limonene] | 0.82 and 0.328
48 | CCCCCCCCCC=O [decyl aldehyde] | 0.959
49 | CC(=O)C(C)=O [diacetyl] | 1.3
50 | CCCCCCCCOC(C)=O [octyl acetate] | 1.11
51 | C=CCc1ccc(O)c(OC)c1 [eugenol] | 2.44 and 1.29
52 | CCCCCCCOC(C)=O [heptyl acetate] | 1.36 and 1.22
53 | CCCCCC(C)=O [2-heptanone] | 0.827

Each molecule was assayed on OR1F12 clone 1694 in the same assay as above. Details: 100 µM.

Row | SMILES | odorant receptor activation
54 | CC=Cc1ccc(O)c(OC)c1 [isoeugenol] | 4.56
55 | O=C1CCCCCCCCCCCCCCO1 [pentadecalactone] | 0.709
56 | CCCCCCC=O [heptaldehyde] | 0.659
57 | CC12CCC(CC1)C(C)(C)O2 [cineole] | 0.88
58 | C=CCSCC=C [diallyl sulfide] | 0.637
59 | CC(=O)OC1CC2CCC1(C)C2(C)C (centres undefined) [isobornyl acetate] | 1.16
60 | C=C(C)C1CCC2=CC(=O)CC(C)C2(C)C1 (centres undefined) [amyl laurate] | 1.56
61 | COC(=O)c1ccccc1O [methyl salicylate] | 1.03
62 | C=CC(C)(O)CCC=C(C)C (centres undefined) [linalool] | 1.04
63 | C=CCc1ccc(OC(C)=O)c(OC)c1 [eugenol acetate] | 1.4
64 | CCCCCCOC(=O)CCC [hexyl butyrate] | 0.621
65 | CC1COCc2cc3c(cc21)C(C)(C)C(C)C3(C)C (centres undefined) [galaxolide] | 3.33 and 1.2
66 | CCCCCOC(C)=O [n-amyl acetate] | 1.07
67 | CC(=O)OC(C)(C)C1CC=C(C)CC1 (centres undefined) [terpinyl acetate] | 0.856
68 | C=C(C)C1CC=CCC1 (centres undefined) [r-limonene] | 1.12
69 | CCCCCCCCCC=O [decyl aldehyde] | 0.87
70 | CC(C)(O)CCCC1=CCC(C=O)CC1 (centres undefined) [lyral] | 0.944
71 | CC(=O)C(C)=O [diacetyl] | 0.647
72 | CCCCCCCCOC(C)=O [octyl acetate] | 0.73
73 | C=CCc1ccc(O)c(OC)c1 [eugenol] | 0.934
74 | CCCCCCCOC(C)=O [heptyl acetate] | 0.67
